No constants are given. Whether binding was seen depends on the method and setting. In cells and extracts the contact can be indirect. Some results given as binding are weak or reduced against the parent protein; the word gives no strength.
Target: T1, PPP1R3B (human (endogenous in FaDu or 5-8F cells)) (UniProt Q86XI6)
T1 sequence: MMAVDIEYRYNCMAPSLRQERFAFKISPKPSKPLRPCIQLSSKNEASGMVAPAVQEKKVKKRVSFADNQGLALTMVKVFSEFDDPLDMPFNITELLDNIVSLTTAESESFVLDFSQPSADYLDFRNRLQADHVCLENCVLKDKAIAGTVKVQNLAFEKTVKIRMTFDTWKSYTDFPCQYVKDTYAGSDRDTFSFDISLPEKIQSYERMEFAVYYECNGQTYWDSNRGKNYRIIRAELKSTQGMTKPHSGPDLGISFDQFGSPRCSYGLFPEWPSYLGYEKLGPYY
Assay: co-IP; cell lysates incubated with AminoLink resin coupled to antibodies against PPP1R3B, PP1C or PHKG2; eluates analysed by Western blotting; cells with different PHKG2 expression levels

binding: binds
B1: PHKG2 (enzyme, UniProt P15735 1-406)
chain: MTLDVGPEDELPDWAAAKEFYQKYDPKDVIGRGVSSVVRRCVHRATGHEFAVKIMEVTAERLSPEQLEEVREATRRETHILRQVAGHPHIITLIDSYESSSFMFLVFDLMRKGELFDYLTEKVALSEKETRSIMRSLLEAVSFLHANNIVHRDLKPENILLDDNMQIRLSDFGFSCHLEPGEKLRELCGTPGYLAPEILKCSMDETHPGYGKEVDLWACGVILFTLLAGSPPFWHRRQILMLRMIMEGQYQFSSPEWDDRSSTVKDLISRLLQVDPEARLTAEQALQHPFFERCEGSQPWNLTPRQRFRVAVWTVLAAGRVALSTHRVRPLTKNALLRDPYALRSVRHLIDNCAFRLYGHWVKKGEQQNRAALFQHRPPGPFPIMGPEEEGDSAAITEDEAVLVLG

Source: paper PMC12398534
